Laboratory results from doi:10.1101/2024.11.05.621850.

Chains of the proteins cited; added tags and fusions are not shown. Lines headed by an entry give the natural chain unless they say otherwise; changes in a name come on top.
UniProt P57735: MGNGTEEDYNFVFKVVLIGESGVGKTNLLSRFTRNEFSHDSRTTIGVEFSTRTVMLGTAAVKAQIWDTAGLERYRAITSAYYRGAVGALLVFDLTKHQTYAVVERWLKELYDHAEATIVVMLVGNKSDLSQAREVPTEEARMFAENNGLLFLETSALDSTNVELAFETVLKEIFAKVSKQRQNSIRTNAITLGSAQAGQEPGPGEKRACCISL

Target: T1, EGFP:DENND6A (human (cDNA of HeLa, HCT116 and MCF7 cells)) (UniProt Q8IWF6)
T1 sequence: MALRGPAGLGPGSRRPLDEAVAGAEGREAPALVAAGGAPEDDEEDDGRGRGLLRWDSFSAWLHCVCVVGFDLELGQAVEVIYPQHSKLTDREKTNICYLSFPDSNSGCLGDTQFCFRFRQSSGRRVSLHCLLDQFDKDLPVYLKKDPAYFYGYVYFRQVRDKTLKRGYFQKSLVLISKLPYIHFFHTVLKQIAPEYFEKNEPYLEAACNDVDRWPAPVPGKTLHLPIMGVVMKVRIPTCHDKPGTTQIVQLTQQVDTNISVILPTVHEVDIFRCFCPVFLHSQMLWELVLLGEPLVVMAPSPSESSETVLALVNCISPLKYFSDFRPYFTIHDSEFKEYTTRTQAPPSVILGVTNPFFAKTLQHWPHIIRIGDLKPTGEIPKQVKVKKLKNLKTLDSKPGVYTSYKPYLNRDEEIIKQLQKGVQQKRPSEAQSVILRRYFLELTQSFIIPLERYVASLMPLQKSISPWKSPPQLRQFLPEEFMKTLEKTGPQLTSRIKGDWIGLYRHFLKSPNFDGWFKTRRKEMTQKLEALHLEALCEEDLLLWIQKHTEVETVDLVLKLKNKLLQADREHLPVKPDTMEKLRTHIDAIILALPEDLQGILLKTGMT
Assay: co-IP

binding | Substance
binds | HA:RAB25 Q71L (from UniProt P57735)
no binding | HA:RAB25-T26NQ71L (from UniProt P57735)

No constants are given. Whether binding was seen depends on the method and setting. In cells and extracts the contact can be indirect. A result given as binding can be weak or reduced; the word gives no strength. Sequences can lack the tags named with a protein.
